PubChem BioAssay AID1259297, Sanger Institute | 2017
Assay: 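Kinases whose loss kills cells on their own or with targeted drugs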 (primary screen). Cell system: human RCM1 colorectal cancer cell line. Knock-down reagent: siRNA pool against human genes. Challenge: separate arms: DMSO vehicle, or one anchor drug at a mild dose: BYL719 1 µM, cetuximab 5 µg/ml, trametinib 10 nM. Read-out: 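Viability per well relative to a non-targeting pool, mean of replicates; robust z-score for knock-down alone; synergy score with BYL719, cetuximab or trametinib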. Reading the numbers: viability z-score, knock-down alone: higher = more viable cells than non-targeting controls; viability, knock-down alone (DMSO): higher = more viable cells; synergy score with trametinib: higher = stronger combined killing with trametinib; synergy score with BYL719: higher = stronger combined killing with BYL719; synergy score with cetuximab: higher = stronger combined killing with cetuximab. Active means: 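Essential when the viability robust z-score for knock-down alone is below -3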. Calls: active = essential when knocked down alone; inactive = no clear loss of viability alone.
In all, the deposit lists 794 reagents; below is an unselected part. 13 of them (1.6%) were called active. 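Calls reflect knock-down without drug only; drug synergy is judged separately, with scores above 0.15 counted as synergy.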 Unmarked entries are inactive. No viability above 1 is reported: the scale is capped. The record does not give: the amount of reagent, the time to read-out.

target gene,"viability z-score, knock-down alone","viability, knock-down alone (DMSO) (fraction of control)",synergy score with trametinib,synergy score with BYL719,synergy score with cetuximab
TRIB3 (tribbles pseudokinase 3),-0.401,0.879,-0.0568,0.00621,-0.0783
GSK3B (glycogen synthase kinase 3 beta),0.866,0.997,-0.000814,-0.0758,-0.121
NADK (NAD kinase),0.349,0.949,-0.00698,-0.12,-0.144
PLK4 (polo like kinase 4),-1.09,0.815,0.0581,-0.116,0.0283
DGUOK (deoxyguanosine kinase),0.636,0.976,0.0747,0.125,0.144
SF3B1 (splicing factor 3b subunit 1),-1.24,0.802,-0.183,-0.0625,-0.0633
KSR1 (kinase suppressor of ras 1),-2.33,0.7,-0.0138,-0.0568,0.00571

A few values from the list:
Value for GSK3B (glycogen synthase kinase 3 beta) under “viability, knock-down alone (DMSO) (fraction of control)”: 0.997
For “synergy score with trametinib”, NADK (NAD kinase) is entered as -0.00698

The results go on:
target gene,"viability z-score, knock-down alone","viability, knock-down alone (DMSO) (fraction of control)",synergy score with trametinib,synergy score with BYL719,synergy score with cetuximab
PXK (PX domain containing serine/threonine kinase like),0.715,0.983,0.117,0.0886,0.0496
MAP3K20 (mitogen-activated protein kinase kinase kinase 20),0.9,1,0.0523,-0.0346,-0.0929
RYK (receptor like tyrosine kinase),0.9,1,-0.032,-0.0728,-0.118
MAPK3 (mitogen-activated protein kinase 3),0.774,0.988,0.212,-0.0551,-0.0299
MAP4K4 (mitogen-activated protein kinase kinase kinase kinase 4),-0.589,0.862,0.00155,-0.0907,-0.195
